We go through two molecules from PMC4814890.

Protein sequences, listed by entry. Tags and fused reporters are not part of them. Lines headed by an entry give the natural chain unless they say otherwise; changes in a name come on top.
UniProt P15208: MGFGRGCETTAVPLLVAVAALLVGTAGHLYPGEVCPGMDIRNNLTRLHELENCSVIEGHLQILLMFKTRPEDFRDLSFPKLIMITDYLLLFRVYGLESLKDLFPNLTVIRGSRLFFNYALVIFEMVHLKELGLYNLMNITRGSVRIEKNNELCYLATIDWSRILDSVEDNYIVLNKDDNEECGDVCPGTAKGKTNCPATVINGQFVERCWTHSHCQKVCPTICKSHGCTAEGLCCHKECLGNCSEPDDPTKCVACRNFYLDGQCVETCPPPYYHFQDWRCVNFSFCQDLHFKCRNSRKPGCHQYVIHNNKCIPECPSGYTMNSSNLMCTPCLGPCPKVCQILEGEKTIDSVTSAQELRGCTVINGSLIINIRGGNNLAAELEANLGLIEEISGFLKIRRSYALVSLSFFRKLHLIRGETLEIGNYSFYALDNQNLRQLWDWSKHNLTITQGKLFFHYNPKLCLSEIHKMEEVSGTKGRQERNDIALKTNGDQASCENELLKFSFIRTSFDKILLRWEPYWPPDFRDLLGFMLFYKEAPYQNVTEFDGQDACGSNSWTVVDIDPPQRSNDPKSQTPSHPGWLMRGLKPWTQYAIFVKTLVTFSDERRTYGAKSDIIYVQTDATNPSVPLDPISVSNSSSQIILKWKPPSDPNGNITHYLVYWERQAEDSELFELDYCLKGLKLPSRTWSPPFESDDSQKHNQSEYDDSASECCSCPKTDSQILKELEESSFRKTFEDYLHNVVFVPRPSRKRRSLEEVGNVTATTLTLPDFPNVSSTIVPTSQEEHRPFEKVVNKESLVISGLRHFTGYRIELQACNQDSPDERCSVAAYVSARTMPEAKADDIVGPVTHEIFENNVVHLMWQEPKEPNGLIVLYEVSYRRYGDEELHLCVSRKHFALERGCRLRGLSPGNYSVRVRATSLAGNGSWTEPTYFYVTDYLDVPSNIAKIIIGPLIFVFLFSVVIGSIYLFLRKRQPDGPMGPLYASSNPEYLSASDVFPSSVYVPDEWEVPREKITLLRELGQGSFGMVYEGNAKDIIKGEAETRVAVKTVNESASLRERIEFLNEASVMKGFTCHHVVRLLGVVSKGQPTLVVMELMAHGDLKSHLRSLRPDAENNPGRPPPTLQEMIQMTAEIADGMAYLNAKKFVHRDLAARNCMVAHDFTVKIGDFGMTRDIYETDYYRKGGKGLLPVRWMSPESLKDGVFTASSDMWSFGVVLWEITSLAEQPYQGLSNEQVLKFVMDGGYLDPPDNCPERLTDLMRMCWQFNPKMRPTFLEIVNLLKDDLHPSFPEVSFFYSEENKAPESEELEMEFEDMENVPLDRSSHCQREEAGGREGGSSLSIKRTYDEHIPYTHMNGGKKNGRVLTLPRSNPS

The target in the test is insulin receptor (mouse (endogenous in HL-1)) (UniProt P15208). The test can be described thus: co-IP; IR immunoprecipitated with an antibody against the beta chain of IR from HL-1 cells challenged with or without 200 nmol/L insulin for 5 min; immunoblotted for CAV1, CAV3 and IR β; mouse serum as immunoprecipitation control. For orientation: Immunoblotting shows a protein as a band on a membrane.

Results are given in words; binding and its absence hold for the method and conditions named. In cells and extracts the contact can be indirect. Some entries that bind do so weakly or less than the wild type.

B1: caveolin-1 (protein, UniProt P49817 1-178)
chain: MSGGKYVDSEGHLYTVPIREQGNIYKPNNKAMADEVTEKQVYDAHTKEIDLVNRDPKHLNDDVVKIDFEDVIAEPEGTHSFDGIWKASFTTFTVTKYWFYRLLSTIFGIPMALIWGIYFAILSFLHIWAVVPCIKSFLIEIQCISRVYSIYVHTFCDPLFEAIGKIFSNIRISTQKEI
On to B1, for which the binding result is given as “binds”.

B2: caveolin-3 (protein, UniProt P51637 1-151)
chain: MMTEEHTDLEARIIKDIHCKEIDLVNRDPKNINEDIVKVDFEDVIAEPEGTYSFDGVWKVSFTTFTVSKYWCYRLLSTLLGVPLALLWGFLFACISFCHIWAVVPCIKSYLIEIQCISHIYSLCIRTFCNPLFAALGQVCSNIKVVLRREG
Take B2: the binding entry was “binds”.
